Experimental data: PubChem BioAssay AID1259308 (NCATS, 2017)

- Test: 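Knock-downs that increase output of a recombinant reporter protein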 (primary screen)
- System: human HEK293 embryonic kidney cells stably expressing firefly luciferase (HEK-CMV-Luc2-Hygro)
- Reagent: single siRNA against human genes, 0.8 pmol siRNA per well
- Time to read-out: 72 h
- Measured: 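Reporter luminescence and viable-cell signal on separate replicate plates, given as percent of non-targeting control and median/MAD z-scores, plus per-cell luciferase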
- Scale: total luciferase, z-score and total luciferase, % of control: higher = more reporter protein produced; luciferase per cell, z-score: higher = more reporter output per viable cell; viable cells, % of control: higher = more viable cells
- Active means: 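Active when the median/MAD z-score for overall luciferase is greater than 3; a gene was taken forward for validation with new siRNAs if at least two of its three siRNAs passed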
- Calls: active = raised luciferase; inactive = no rise
The whole screen tested about 59,000 reagents; below is a random part of them. About 1,510 of them (2.6%) count as active. 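Calls use total luciferase alone and ignore viability, so some active siRNAs may act by altering cell number.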 Unmarked entries are inactive. The numbers tell different reagents against one gene apart. No sequences are given here.

gene knocked down	reagent	total luciferase, z-score	total luciferase, % of control	luciferase per cell, z-score	viable cells, % of control
MMP21 (GeneID 118856)	1	0.234	86.5	0.0581	95.2
MMP21 (GeneID 118856)	2	-0.702	67.9	-1.02	99.3
MMP21 (GeneID 118856)	3	0.508	92	0.416	92.1
PNCK (GeneID 139728)	1	2.11	124	1.71	88.2
PNCK (GeneID 139728)	2	0.432	90.5	0.0451	99.9
PNCK (GeneID 139728)	3	0.584	93.5	0.711	86.6
MYO18A (GeneID 399687)	1	-3.02	21.9	-2.45	46.7
MYO18A (GeneID 399687)	2	1.36	109	0.731	100
MYO18A (GeneID 399687)	3	0.5	91.8	-0.0363	104
HGSNAT (GeneID 138050)	1	-0.749	67	-1.29	105
HGSNAT (GeneID 138050)	2	2.8	138	3.17	66.7
HGSNAT (GeneID 138050)	3	0.341	88.7	-0.0337	100
SUPT7L (GeneID 9913)	1	0.988	102	1.87	69.3
SUPT7L (GeneID 9913)	2	-1.49	52.2	-0.657	69.4
SUPT7L (GeneID 9913)	3	2.65	135	3.25	63.8
MPZL1 (GeneID 9019)	1	0.983	101	0.797	91.9
MPZL1 (GeneID 9019)	2	1.54	113	2.03	73.6
MPZL1 (GeneID 9019)	3	0.788	97.6	0.779	88.8
CDK15 (GeneID 65061)	1	-1.41	53.8	0.279	55.8
CDK15 (GeneID 65061)	2	0.602	93.9	-0.152	109
CDK15 (GeneID 65061)	3	0.879	99.4	1.11	82.9
TAS2R42 (GeneID 353164)	1	1.05	103	1.32	81.2
TAS2R42 (GeneID 353164)	2	-1.92	43.7	-1.31	69
TAS2R42 (GeneID 353164)	3	1.49	112	0.8	101
PMS2P1 (GeneID 5379)	1	-0.227	77.4	-0.416	96.5
PMS2P1 (GeneID 5379)	2	-0.73	67.4	-1.12	101
PMS2P1 (GeneID 5379)	3	0.259	87	-0.734	118

The list goes on, starting with the last 2 of the part before.
gene knocked down	reagent	total luciferase, z-score	total luciferase, % of control	luciferase per cell, z-score	viable cells, % of control
PMS2P1 (GeneID 5379)	2	-0.73	67.4	-1.12	101
PMS2P1 (GeneID 5379)	3	0.259	87	-0.734	118
CCSER1 (GeneID 401145)	1	3.15 (active)	145	3.57	63.1
CCSER1 (GeneID 401145)	2	0.313	88.1	0.522	85.8
CCSER1 (GeneID 401145)	3	0.739	96.6	0.442	96.1
FLI1 (GeneID 2313)	1	0.351	88.9	-0.00863	99.5
FLI1 (GeneID 2313)	2	-0.933	63.3	-1.2	97
FLI1 (GeneID 2313)	3	1.24	106	0.554	103
SYVN1 (GeneID 84447)	1	0.166	85.2	0.0914	92.9
SYVN1 (GeneID 84447)	2	-1.01	61.7	-0.0401	69.7
SYVN1 (GeneID 84447)	3	-0.149	78.9	-0.404	98.1
SLC38A8 (GeneID 146167)	1	0.0338	82.6	0.235	86.7
SLC38A8 (GeneID 146167)	2	2.83	138	2.08	89.4
SLC38A8 (GeneID 146167)	3	0.614	94.1	0.135	101
LINC02871 (GeneID 728434)	1	-0.0974	80	-0.81	111
LINC02871 (GeneID 728434)	2	2.37	129	1.73	91.4
LINC02871 (GeneID 728434)	3	0.854	98.9	2.16	62.6
ENOX2 (GeneID 10495)	1	2	122	2.31	74.1
ENOX2 (GeneID 10495)	2	-0.409	73.7	-0.355	90.5
ENOX2 (GeneID 10495)	3	0.834	98.5	0.561	94.9
CATSPER1 (GeneID 117144)	1	-0.209	77.7	0.15	83.5
CATSPER1 (GeneID 117144)	2	1.7	116	1.45	88.2
CATSPER1 (GeneID 117144)	3	0.16	85.1	-0.618	112
CRLS1 (GeneID 54675)	1	0.372	89.3	0.754	81.8
CRLS1 (GeneID 54675)	2	-0.709	67.8	0.13	73.2
CRLS1 (GeneID 54675)	3	1.43	110	0.943	96.1
MYOC (GeneID 4653)	1	-0.949	63	-0.0939	72.2
MYOC (GeneID 4653)	2	-0.0918	80.1	0.442	79.6
MYOC (GeneID 4653)	3	-0.835	65.3	-0.132	75.5
ABHD15 (GeneID 116236)	1	0.901	99.8	0.703	92.7
ABHD15 (GeneID 116236)	2	1.13	104	0.552	101
ABHD15 (GeneID 116236)	3	1.24	107	0.7	99
